The list shows only some results of the screen, not a fair sample: it gathers tests that were run many times, whatever their T/C, doses with no T/C, and many T/C values between a quarter and a half above the control. Other doses and runs of a compound stand elsewhere. T/C: endpoint of the treated group in % of that of the vehicle group. Some entries give survivors of the animals treated and no T/C: the source files T/C as zero there, which appears to mark a toxic dose or a test without result, not a measured value. Some doses without a T/C left all or most animals alive at the check, yet need not have been tolerated: survival well below the control is almost never listed, so the zero probably covers shortened survival too. Survivors were counted at the toxicity check, usually on the fifth day, unless a day is given; later deaths do not show. Schedules are NCI's codes, taken here to give the interval after Q, in days (D) or hours (H), and the number of doses after X. Some entries hold several experiments; the results are listed from low to high. For survival time, the PubChem record calls one and a half times the control and up active, and a quarter to a half above the control has no call in these data; cut-offs in other NCI protocols can differ. Some T/C values are followed by the survivors on the day toxicity was checked, most often the fifth; without a count, all were alive then.
Tested on: BDF1 mice, P388 leukemia ip, median survival T/C
Assay: NCI In Vivo Anticancer Drug Screen. Data for tumor model P388 Leukemia (intraperitoneal) in B6D2F1 (BDF1) mice
Settings: T/C endpoint: median survival time, higher T/C = longer survival
Summary of the method: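 Transplantable tumour in mice; compound vs vehicle dosing; survival scored; ratio of treated to control reported.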

[1] = dose: 50.0 mg/kg/injection, schedule: Q01DX009 (ip), vehicle: saline with Tween-80
[2] = dose: 100.0 mg/kg/injection, schedule: Q01DX009 (ip), vehicle: saline with Tween-80
[3] = dose: 200.0 mg/kg/injection, schedule: Q01DX009 (ip), vehicle: saline with Tween-80
[4] = dose: 200.0 mg/kg/injection, schedule: Q04DX003 (ip), vehicle: saline
[5] = dose: 400.0 mg/kg/injection, schedule: Q04DX003 (ip), vehicle: saline
[6] = dose: 20.0 mg/kg/injection, schedule: Q01DX009 (ip), vehicle: saline with Tween-80
[7] = dose: 50.0 mg/kg/injection, schedule: Q04DX003 (ip), vehicle: saline with Tween-80

With `COc1cc(/C=C/[N+](=O)[O-])c(OC)cc1Br` the survivor count [1] was 6 of 6, the survivor count [2] was 2 of 6 and the survivor count [3] was 0 of 6.

In the case of `CCOC(=O)CN(C)C#N`, the T/C (dose: 200.0 mg/kg/injection, schedule: Q01DX009 (ip), vehicle: saline) is reported as 125 % of control.

`C=C1[C@@H](C)[C@H]2[C@H](Cc3ccccc3)NC(=O)[C@]23OC(=O)/C=C/[C@H](O)CCC[C@@H](C)C/C=C/[C@H]3[C@@H]1O` was tested, and the survivor count (dose: 0.5 mg/kg/injection, schedule: Q04DX002 (ip), vehicle: saline) was 3 of 3 and the T/C (dose: 4.0 mg/kg/injection, schedule: Q04DX002 (ip), vehicle: saline) was 127 % of control [2 of 3 alive].

`Cn1c(=O)c2ncnnc2n(C)c1=O` was tested, and the survivor count (dose: 25.0 mg/kg/injection, schedule: Q01DX009 (ip), vehicle: Klucel (hydroxypropylcellulose) (HPC)) was 0 of 6.

In the case of `CCCCN1C(=O)C2CC=C3C=CN4C(C3C2C1=O)C1C(=O)N(CCCC)C(=O)C1C41CC(=O)N(CCCC)C1=O` (centres undefined), the survivor count (dose: 400.0 mg/kg/injection, schedule: Q04DX003 (ip), vehicle: Klucel (hydroxypropylcellulose) (HPC)) is reported as 6 of 6.

With `CC(=O)OS(C)(=O)=O` the survivor count [4] was 3 of 6 and the survivor count [5] was 1 of 6.

In the case of `O=COCC(O)COC=O`, the survivor count [5] is reported as 5 of 6.

In the case of `[O-]c1on[n+](C2CCCCC2)c1-c1ccccc1`, the survivor count (dose: 400.0 mg/kg/injection, schedule: Q01DX009 (ip), vehicle: saline with Tween-80) is reported as 6 of 6.

With `Brc1cnc[nH]1` the T/C (dose: 200.0 mg/kg/injection, schedule: Q04DX003 (ip), vehicle: water) was 127 % of control and the survivor count (dose: 400.0 mg/kg/injection, schedule: Q01DX009 (ip), vehicle: water) was 6 of 6.

With `NP(=O)(N1CC1)N1CC1` the T/C (dose: 12.5 mg/kg/injection, schedule: Q04DX003 (ip), vehicle: saline) was 135 % of control.

With `S=c1[nH]c2nc(Cl)c(Cl)nc2[nH]1` the T/C [1] was 134 % of control, the survivor count [3] was 4 of 6 and 5 of 6 and the survivor count (dose: 400.0 mg/kg/injection, schedule: Q04DX003 (ip), vehicle: saline with Tween-80) was 0 of 6.

In the case of `COc1cccc2c1C(=O)c1c(O)c3c(c(O)c1C2=O)C[C@@](O)(/C(C)=N/NC(=O)c1ccc(-c2ccccc2)cc1)C[C@@H]3OC1CC(N)C(O)C(C)O1` (some centres undefined), the T/C (dose: 1.56 mg/kg/injection, schedule: Q01DX009 (ip), vehicle: water) is reported as 139 % of control, the T/C (dose: 3.12 mg/kg/injection, schedule: Q01DX009 (ip), vehicle: water) is reported as 134 % of control and the T/C (dose: 6.25 mg/kg/injection, schedule: Q01DX009 (ip), vehicle: water) is reported as 139 % of control. For the same compound, the survivor count (dose: 12.5 mg/kg/injection, schedule: Q01DX009 (ip), vehicle: water) was 6 of 6 and the survivor count (dose: 25.0 mg/kg/injection, schedule: Q01DX009 (ip), vehicle: water) was 6 of 6.

In the case of `O=[N+]([O-])/C=C/c1ccc2ccccc2n1`, the T/C (dose: 5.0 mg/kg/injection, schedule: Q01DX009 (ip), vehicle: saline with Tween-80) is reported as 129 % of control, the T/C (dose: 10.0 mg/kg/injection, schedule: Q01DX009 (ip), vehicle: saline with Tween-80) is reported as 125 % of control [5 of 6 alive] and the T/C [6] is reported as 125 % of control [4 of 6 alive]. For the same compound, the survivor count [6] was 4 of 6, the survivor count (dose: 30.0 mg/kg/injection, schedule: Q01DX009 (ip), vehicle: saline with Tween-80) was 1 of 6 and the survivor count (dose: 40.0 mg/kg/injection, schedule: Q01DX009 (ip), vehicle: saline with Tween-80) was 0 of 6. For the same compound, the survivor count [7] was 4 of 6.

`CC1CN(c2ccc([N+](=O)[O-])cc2)C(C)CN1` (centres undefined) was tested, and the survivor count [4] was 2 of 6.

`CCCCCCCCCC[N+](C)(C)CC(O)C[N+](C)(C)CCCCCCCCCC` was tested, and the survivor count [1] was 0 of 6, the survivor count [2] was 0 of 6 and the survivor count [3] was 0 of 6.

With `Oc1ccc(Cl)cc1Sc1cc(Cl)ccc1O` the survivor count (dose: 100.0 mg/kg/injection, schedule: Q01DX001 (ip), vehicle: saline with Tween-80) was 3 of 6, the survivor count (dose: 200.0 mg/kg/injection, schedule: Q01DX001 (ip), vehicle: saline with Tween-80) was 0 of 6 and the survivor count (dose: 400.0 mg/kg/injection, schedule: Q01DX001 (ip), vehicle: saline with Tween-80) was 0 of 6.

For `FC(F)(F)C1=N/C(=C2\N=C(C(F)(F)F)N=C2Cl)C(Cl)=N1`, the survivor count [1] was 2 of 6 and the survivor count [7] was 3 of 6.

— PubChem BioAssay AID328 (DTP/NCI, 2004)
